These are yes or no findings as the source states them, for the method shown. In cells and extracts the contact can be indirect. Tags and fused reporters may be left off the sequences shown.

Sequences of proteins named here, by UniProt entry; tags and fusion partners are left off.
UniProt P00519: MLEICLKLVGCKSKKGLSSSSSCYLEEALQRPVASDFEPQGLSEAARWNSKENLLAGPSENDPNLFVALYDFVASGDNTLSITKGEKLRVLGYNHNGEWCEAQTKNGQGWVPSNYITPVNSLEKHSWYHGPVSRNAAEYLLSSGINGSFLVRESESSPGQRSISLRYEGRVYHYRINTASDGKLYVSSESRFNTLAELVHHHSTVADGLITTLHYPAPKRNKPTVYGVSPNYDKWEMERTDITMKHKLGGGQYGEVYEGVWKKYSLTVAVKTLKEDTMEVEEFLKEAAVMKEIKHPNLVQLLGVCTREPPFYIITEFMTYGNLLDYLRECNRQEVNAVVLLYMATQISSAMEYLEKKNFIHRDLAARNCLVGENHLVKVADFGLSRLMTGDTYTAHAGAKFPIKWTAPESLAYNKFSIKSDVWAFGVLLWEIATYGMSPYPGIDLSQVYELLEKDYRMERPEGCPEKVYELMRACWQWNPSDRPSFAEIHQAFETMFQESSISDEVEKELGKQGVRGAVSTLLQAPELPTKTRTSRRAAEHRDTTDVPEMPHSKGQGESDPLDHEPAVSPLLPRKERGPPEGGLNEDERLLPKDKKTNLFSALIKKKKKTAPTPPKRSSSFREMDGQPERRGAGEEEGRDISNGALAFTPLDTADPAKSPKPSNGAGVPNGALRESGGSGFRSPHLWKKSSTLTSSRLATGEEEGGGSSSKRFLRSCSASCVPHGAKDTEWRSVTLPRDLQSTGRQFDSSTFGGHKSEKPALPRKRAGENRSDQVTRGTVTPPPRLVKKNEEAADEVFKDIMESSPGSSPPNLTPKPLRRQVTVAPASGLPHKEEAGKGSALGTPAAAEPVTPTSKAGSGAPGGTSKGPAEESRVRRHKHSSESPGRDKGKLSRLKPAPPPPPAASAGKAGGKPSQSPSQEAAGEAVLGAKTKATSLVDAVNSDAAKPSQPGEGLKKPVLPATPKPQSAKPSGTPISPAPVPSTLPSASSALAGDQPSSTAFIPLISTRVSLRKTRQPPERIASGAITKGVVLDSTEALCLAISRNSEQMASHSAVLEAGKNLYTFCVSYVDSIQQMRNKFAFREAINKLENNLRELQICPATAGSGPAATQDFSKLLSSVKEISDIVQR

Consider one substance from publication doi:10.1101/296194.

The target of the assay is T1, Flag-PTPN18-WT (UniProt Q99952).
T1 sequence: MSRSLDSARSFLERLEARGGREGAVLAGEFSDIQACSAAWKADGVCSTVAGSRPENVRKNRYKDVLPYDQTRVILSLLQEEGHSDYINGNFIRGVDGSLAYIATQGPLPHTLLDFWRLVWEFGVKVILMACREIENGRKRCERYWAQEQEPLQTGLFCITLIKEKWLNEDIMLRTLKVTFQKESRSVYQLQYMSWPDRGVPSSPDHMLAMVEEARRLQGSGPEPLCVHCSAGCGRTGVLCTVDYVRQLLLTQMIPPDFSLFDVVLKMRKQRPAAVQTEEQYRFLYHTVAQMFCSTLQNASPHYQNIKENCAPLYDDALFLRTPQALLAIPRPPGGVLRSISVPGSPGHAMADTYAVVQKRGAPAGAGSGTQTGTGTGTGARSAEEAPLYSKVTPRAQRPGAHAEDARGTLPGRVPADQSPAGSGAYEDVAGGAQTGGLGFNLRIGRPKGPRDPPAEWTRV
Put plainly: co-IP.

With ABL1 (from UniProt P00519 1-1130), the binding entry is on record as “no binding”.
